In the supplement of paper PMC12819154, “High-throughput peptide-centric local stability assay extends protein–ligand identification to membrane proteins, tissues and bacteria” (Nature Structural & Molecular Biology, 2025) one finds log2 fold change data, which are given here for 36 targets.

Sequences of proteins named here, by UniProt entry; tags and fusion partners are left off. A change or cut given only in a name is not applied to a line headed by its entry.
UniProt Q07076: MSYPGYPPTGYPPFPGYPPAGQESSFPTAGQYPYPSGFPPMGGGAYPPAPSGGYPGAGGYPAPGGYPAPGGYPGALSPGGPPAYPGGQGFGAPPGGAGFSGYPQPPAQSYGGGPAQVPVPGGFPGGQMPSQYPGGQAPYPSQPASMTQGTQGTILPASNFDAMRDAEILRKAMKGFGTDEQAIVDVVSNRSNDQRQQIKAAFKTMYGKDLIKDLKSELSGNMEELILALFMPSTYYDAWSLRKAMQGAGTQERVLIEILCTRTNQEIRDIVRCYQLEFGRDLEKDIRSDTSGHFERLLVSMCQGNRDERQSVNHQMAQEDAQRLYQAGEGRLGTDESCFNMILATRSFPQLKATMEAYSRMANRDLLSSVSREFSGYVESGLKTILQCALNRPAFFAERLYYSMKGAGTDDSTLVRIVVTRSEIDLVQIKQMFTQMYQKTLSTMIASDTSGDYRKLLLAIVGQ
UniProt Q3TIX9: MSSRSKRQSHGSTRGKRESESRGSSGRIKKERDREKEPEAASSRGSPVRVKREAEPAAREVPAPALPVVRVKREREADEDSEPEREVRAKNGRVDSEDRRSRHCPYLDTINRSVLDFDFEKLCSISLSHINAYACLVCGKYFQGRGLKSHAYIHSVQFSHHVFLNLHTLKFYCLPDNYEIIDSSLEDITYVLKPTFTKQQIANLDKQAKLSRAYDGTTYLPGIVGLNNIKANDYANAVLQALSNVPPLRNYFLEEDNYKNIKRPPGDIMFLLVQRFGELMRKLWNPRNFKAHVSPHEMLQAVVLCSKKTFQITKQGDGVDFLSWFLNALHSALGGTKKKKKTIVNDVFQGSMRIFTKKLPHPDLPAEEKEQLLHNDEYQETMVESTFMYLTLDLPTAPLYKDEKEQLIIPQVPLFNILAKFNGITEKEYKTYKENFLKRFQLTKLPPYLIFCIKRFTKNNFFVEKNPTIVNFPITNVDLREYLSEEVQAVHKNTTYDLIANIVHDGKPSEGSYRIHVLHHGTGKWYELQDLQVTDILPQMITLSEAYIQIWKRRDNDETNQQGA
UniProt Q3B7Z2, whole entry: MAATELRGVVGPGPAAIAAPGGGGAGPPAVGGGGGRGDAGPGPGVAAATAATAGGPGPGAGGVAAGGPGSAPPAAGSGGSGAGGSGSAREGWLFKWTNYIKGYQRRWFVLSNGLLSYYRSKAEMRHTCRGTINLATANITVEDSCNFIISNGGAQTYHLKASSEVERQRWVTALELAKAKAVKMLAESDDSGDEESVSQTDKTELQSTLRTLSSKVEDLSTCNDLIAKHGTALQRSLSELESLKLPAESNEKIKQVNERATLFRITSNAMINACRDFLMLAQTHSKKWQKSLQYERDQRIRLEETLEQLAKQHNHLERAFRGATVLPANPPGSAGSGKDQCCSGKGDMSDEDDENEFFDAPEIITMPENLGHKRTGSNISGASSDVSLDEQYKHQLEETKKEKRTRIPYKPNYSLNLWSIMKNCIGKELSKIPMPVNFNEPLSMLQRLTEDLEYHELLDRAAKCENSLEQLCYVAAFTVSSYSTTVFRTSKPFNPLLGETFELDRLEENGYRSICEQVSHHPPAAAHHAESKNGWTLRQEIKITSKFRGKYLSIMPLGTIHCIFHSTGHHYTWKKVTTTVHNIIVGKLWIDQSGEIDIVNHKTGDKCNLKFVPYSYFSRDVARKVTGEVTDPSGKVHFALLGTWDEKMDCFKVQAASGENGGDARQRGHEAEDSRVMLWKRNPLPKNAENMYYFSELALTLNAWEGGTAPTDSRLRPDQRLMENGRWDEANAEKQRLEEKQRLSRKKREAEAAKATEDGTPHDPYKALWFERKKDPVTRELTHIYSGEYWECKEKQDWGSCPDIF
UniProt Q08943, whole entry: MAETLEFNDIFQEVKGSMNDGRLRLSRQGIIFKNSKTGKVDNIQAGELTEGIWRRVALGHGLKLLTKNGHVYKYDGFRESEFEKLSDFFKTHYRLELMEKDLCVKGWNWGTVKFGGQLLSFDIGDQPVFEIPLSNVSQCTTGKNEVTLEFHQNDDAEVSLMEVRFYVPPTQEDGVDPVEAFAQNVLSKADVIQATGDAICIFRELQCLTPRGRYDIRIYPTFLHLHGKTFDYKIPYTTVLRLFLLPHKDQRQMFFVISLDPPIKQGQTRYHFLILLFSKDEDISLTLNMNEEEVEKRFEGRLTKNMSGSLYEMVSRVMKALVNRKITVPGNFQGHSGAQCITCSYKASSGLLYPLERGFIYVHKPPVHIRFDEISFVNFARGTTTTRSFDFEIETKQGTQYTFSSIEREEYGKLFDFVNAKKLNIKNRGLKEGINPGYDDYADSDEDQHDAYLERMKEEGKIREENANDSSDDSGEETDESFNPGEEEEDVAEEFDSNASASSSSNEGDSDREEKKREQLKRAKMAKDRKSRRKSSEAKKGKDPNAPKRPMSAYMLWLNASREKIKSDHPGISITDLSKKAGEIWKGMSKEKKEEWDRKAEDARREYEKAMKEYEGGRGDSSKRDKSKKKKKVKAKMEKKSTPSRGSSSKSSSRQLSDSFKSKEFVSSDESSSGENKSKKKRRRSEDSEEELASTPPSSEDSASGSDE
UniProt Q0VGB7: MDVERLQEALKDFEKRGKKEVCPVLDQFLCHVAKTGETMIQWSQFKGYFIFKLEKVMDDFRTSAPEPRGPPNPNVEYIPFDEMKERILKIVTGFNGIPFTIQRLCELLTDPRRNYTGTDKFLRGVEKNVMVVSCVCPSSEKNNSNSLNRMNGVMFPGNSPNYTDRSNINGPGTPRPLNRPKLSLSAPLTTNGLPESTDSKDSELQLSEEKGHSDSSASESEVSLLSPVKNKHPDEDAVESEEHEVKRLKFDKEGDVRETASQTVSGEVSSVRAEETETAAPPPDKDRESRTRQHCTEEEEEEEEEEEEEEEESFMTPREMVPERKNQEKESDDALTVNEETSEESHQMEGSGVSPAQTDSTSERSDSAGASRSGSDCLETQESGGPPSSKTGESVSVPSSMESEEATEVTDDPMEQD
UniProt Q3THJ3: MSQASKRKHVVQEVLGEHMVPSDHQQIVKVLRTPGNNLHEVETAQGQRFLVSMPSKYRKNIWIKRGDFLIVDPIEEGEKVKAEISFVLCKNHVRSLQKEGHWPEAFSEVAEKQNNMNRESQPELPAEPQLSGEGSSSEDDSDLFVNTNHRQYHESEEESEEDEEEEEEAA
UniProt Q2M3X8: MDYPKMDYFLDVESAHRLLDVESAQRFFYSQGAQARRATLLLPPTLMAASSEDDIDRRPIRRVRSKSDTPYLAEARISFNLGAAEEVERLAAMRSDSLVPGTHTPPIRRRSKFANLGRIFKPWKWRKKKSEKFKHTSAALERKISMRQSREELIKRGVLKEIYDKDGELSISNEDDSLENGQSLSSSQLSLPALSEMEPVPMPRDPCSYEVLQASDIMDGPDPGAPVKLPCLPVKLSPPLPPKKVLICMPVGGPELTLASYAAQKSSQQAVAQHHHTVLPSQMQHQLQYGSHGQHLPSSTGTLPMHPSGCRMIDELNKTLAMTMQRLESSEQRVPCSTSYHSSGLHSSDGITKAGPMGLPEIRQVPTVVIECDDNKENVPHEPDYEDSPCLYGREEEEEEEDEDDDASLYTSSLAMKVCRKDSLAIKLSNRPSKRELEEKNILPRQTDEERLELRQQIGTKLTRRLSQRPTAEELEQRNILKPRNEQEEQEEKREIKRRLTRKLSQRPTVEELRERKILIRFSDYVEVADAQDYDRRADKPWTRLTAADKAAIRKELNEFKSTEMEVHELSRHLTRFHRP
UniProt Q3U0V2: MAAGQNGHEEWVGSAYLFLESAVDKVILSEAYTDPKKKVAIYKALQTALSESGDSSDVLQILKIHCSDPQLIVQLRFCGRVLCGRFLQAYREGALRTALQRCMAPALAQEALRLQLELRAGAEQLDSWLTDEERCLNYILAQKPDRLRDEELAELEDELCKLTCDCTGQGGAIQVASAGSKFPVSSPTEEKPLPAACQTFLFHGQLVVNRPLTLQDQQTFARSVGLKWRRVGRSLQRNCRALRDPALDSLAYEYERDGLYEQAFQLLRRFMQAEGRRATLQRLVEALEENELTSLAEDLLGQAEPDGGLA
UniProt Q3TEL6: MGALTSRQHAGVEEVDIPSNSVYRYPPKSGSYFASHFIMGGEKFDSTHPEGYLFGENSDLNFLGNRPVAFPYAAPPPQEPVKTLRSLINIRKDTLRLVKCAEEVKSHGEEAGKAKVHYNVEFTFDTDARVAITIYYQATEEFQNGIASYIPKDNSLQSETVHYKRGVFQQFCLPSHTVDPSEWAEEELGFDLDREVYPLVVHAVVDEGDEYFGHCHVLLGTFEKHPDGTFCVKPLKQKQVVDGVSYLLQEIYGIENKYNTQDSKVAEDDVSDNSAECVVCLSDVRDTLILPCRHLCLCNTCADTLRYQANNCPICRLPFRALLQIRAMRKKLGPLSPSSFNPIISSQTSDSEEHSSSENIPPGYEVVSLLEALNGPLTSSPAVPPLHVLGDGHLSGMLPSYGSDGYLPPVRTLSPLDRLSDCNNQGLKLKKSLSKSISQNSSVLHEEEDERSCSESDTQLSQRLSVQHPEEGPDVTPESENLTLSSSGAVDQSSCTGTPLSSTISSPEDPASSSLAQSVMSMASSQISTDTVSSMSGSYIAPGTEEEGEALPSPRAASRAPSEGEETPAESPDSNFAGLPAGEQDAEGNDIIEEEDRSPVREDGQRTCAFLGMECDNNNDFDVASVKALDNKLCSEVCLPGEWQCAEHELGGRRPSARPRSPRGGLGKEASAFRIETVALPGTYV
UniProt Q3TEA8: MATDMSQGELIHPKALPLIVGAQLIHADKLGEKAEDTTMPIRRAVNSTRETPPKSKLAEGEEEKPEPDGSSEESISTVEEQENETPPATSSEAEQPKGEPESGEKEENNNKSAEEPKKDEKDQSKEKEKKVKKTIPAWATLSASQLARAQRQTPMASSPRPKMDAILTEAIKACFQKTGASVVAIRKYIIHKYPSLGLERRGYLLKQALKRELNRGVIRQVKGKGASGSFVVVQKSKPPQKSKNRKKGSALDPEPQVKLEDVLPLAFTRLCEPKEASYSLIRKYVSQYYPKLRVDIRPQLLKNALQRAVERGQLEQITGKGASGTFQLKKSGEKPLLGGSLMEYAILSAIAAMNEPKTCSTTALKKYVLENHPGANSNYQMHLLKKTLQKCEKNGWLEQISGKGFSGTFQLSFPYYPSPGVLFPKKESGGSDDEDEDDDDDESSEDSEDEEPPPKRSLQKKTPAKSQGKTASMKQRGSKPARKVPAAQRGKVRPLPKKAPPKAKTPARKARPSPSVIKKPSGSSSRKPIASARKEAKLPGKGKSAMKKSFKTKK
UniProt Q3TT38: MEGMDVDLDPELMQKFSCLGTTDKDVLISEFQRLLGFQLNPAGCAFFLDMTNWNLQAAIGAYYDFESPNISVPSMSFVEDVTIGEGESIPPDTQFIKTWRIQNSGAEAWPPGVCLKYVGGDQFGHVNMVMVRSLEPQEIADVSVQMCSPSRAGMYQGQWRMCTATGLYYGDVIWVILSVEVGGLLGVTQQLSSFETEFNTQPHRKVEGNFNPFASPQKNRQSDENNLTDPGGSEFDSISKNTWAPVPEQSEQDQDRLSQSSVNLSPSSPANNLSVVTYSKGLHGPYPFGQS
UniProt Q3U0J8: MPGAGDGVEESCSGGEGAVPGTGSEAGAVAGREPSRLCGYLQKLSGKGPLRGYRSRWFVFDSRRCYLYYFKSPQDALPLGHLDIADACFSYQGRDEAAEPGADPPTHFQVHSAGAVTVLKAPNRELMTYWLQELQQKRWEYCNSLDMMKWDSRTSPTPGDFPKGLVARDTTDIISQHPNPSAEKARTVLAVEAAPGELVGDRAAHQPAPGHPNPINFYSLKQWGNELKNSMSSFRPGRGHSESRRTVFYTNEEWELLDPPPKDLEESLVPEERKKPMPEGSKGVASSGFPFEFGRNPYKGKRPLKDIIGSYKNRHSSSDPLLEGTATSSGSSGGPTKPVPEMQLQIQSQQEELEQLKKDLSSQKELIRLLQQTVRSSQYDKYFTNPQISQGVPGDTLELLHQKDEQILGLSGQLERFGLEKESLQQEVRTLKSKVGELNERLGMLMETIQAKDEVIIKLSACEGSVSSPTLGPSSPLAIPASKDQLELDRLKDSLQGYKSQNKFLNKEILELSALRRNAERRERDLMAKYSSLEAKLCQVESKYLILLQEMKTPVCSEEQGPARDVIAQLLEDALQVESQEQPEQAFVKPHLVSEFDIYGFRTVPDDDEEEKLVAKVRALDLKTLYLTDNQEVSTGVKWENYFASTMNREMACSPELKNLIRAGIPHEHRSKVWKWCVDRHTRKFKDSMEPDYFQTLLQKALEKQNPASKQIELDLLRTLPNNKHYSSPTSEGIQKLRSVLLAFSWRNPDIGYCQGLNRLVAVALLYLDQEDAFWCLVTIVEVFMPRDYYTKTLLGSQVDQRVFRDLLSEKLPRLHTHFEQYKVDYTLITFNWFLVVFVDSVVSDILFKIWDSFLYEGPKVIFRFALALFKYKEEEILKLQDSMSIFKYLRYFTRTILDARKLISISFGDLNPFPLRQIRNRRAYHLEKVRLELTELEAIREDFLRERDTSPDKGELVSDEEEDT

The list shows a part of the results. Most entries show no effect beyond the scatter of the controls.

Compound in the experiment: CN[C@@H]1C[C@H]2O[C@@](C)([C@@H]1OC)n1c3ccccc3c3c4c(c5c6ccccc6n2c5c31)C(=O)NC4 [staurosporine]
Put plainly: log2 fold change of tryptic peptide abundance, ligand vs vehicle (limited proteolysis) (log2 ratio); higher = more trypsin-susceptible (destabilized). Particulars: ligand concentration: 20 uM; sample: mouse liver crude lysate; replicate design: treated separately.
With “UniProt Q3U2I3 (peptide sequence: SISEPALLR, peptide start residue: 360)”, the log2 fold change was 0.451.
For the target “UniProt Q2VPA6 (peptide sequence: YMQLPECGDRDADSGTK, peptide start residue: 91)”, the log2 fold change is -0.534.
Consider “UniProt Q07076 (peptide sequence: DLEKDIR, peptide start residue: 281)”, for which the log2 fold change is -0.513.
The result for “UniProt Q3TPJ7 (peptide sequence: HVLAAAAAAAAAAR, peptide start residue: 168)” reads 0.601; that for “UniProt Q05186 (peptide sequence: HWILPQDYDHAQAEAR, peptide start residue: 265)”, -0.0939; that for “UniProt Q0VEE6 (peptide sequence: KYEVADVGIEVK, peptide start residue: 597)”, 0.3.
To “UniProt Q3TIX9 (peptide sequence: EREADEDSEPEREVR, peptide start residue: 74)” belongs -0.512; to “UniProt Q3TL44 (peptide sequence: GATLNPWRK, peptide start residue: 945)”, 0.476; to “UniProt Q3TY92 (peptide sequence: QDVTLEPSPTTR, peptide start residue: 968)”, -0.0187.
The result for “UniProt Q3B7Z2 (peptide sequence: ITSNAMINACRDFLMLAQTHSK, peptide start residue: 265)” reads -0.441; that for “UniProt Q3THK7 (peptide sequence: VIEPLKDFHK, peptide start residue: 407)”, 0.631; that for “UniProt Q283N4 (peptide sequence: CHPDLAGR, peptide start residue: 66)”, -0.126.
As for “UniProt Q3TIR3 (peptide sequence: TRPEVGDLLR, peptide start residue: 364)”, the log2 fold change came out at 0.497.
The result for “UniProt Q08943 (peptide sequence: RPMSAYMLWLNASR, peptide start residue: 549)” reads 0.145; that for “UniProt Q3TZZ7 (peptide sequence: GKSDPYGIIR, peptide start residue: 334)”, -0.338.
The result for “UniProt Q3TQF0 (peptide sequence: RILHTDTIWR, peptide start residue: 85)” reads 0.398; that for “UniProt Q05D44 (peptide sequence: NVNTEKLR, peptide start residue: 619)”, -1.05; that for “UniProt Q0VGB7 (peptide sequence: FDKEGDVR, peptide start residue: 250)”, -0.204.
To “UniProt Q3THJ3 (peptide sequence: GDFLIVDPIEEGEKVK, peptide start residue: 66)” belongs 0.327; to “UniProt Q2M3X8 (peptide sequence: LSQRPTAEELEQR, peptide start residue: 581)”, -0.267.
Regarding “UniProt Q3U1T3 (peptide sequence: VKTEPPVKLEK, peptide start residue: 239)”, the log2 fold change is -0.251.
The result for “UniProt Q04841 (peptide sequence: LADSEQQQTPK, peptide start residue: 71)” reads 0.145; that for “UniProt Q3TW96 (peptide sequence: AGQDHLLR, peptide start residue: 14)”, -0.124.
To “UniProt Q03145 (peptide sequence: SEQLKPLK, peptide start residue: 580)” belongs 0.427; to “UniProt Q14C51 (peptide sequence: MLELFKK, peptide start residue: 595)”, 0.123.
The result for “UniProt Q3U0V2 (peptide sequence: VILSEAYTDPK, peptide start residue: 26)” reads -0.221; that for “UniProt Q3T9M1 (peptide sequence: SPAVSPDVAR, peptide start residue: 210)”, -0.0338; that for “UniProt Q3TEL6 (peptide sequence: YQANNCPICR, peptide start residue: 308)”, 0.0796.
On to “UniProt Q3TRM8 (peptide sequence: ATIGPSGLHPGER, peptide start residue: 2)”, for which the log2 fold change came to 0.133.
To “UniProt Q3TEA8 (peptide sequence: YPSLGLER, peptide start residue: 193)” belongs 0.318; to “UniProt Q0VDN7 (peptide sequence: ELEDFAFR, peptide start residue: 127)”, -0.205; to “UniProt Q3TT38 (peptide sequence: KVEGNFNPFASPQK, peptide start residue: 205)”, -0.189.
To “UniProt Q3U0J8 (peptide sequence: NSMSSFRPGR, peptide start residue: 229)” belongs 0.509; to “UniProt Q0VBL1 (peptide sequence: KAELNPEK, peptide start residue: 467)”, 0.201.
The result for “UniProt Q3TDD9 (peptide sequence: SKETLTEEMR, peptide start residue: 709)” reads -0.408; that for “UniProt Q3TC93 (peptide sequence: APGATGLATR, peptide start residue: 139)”, -0.0726.
